# Experimental data reported in the supplement of paper PMC8728848.
# This is one part of the list.
# B1: MIC2 (Toxoplasma gondii), S8F9G8 (protein)
# chain: MRLQREAVFGLMFACGMWMWPSEVAGGGWSIVDALRKRYDTSRGGDANGVDTSGVEDVIQSESAIGAAEGCTNQLDICFLIDSSGSIGIQNFRLVKQFLHTFLMVLPIGPEEVNNAVVTYSTDVHLQWDLQSPNAVDKQLAAHAVLDMPYKKGSTNTSDGLKACKQILFTGSRPGREHVPKLVIGMTDGESDSDFRTVRAAKEIRELGGIVTVLAVGHYVKHSECRSMCGCSGTSDDDSPCPLYLRADWGQLATAIKPMLKEVCKTLPQDAICSDWSAWSPCSVSCGDGSQIRTRTEVSAPQPGTPTCPDCPAPMGRTCVEQGGLEEIRECSAGVCAVDAGCGVWGEWSAWSASCGNATRKRERTRYNDPPPQGAGRRCENQDPPVLQEQTEEATLAPCITIPPTPPEWAAWSDCTVTCGGGNRHRVRNALPPGLGSQNGESDESLVSKLWPGTDLRQEEACNTSPCPINATCGQFEEWSTCSVSCGGGLKTRSRNPWNEDQQHGGLSCEQQHPGGRTETITCNPQACPVDERPGEWAEWGECSVTCGDGVRERRRGKSLVEAKFGGRTIDQQNEALPEDLKIKNVEYEPCSYPACGASCTYVWSDWNKCVCPMGYQARHAAVKFDYRNKPCDLPTFETKACSCGETNPVPSEGTTPGAPGATGPEQPNQRPLPEGSDENETPTNEEGEQSKKESGSGIAGAIAGGVIGGLILLGAAGGASYHYYLSSSVGSPSAEIEYEADDGATKVVMEEEKETLVPVDDDSDMWME
# Experiments:
# Test in all cases: glycan array binding signal (z-score within array); higher = stronger binding
# Settings in all cases: glycan notation: IUPAC condensed, linker removed
# [1] = target: Neu5Ac(a2-8)Neu5Ac
# How it was run: (§1)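 Columns mapping to the same glycan were averaged after glycan names were converted to IUPAC-condensed notation. The data come from 3228 arrays in the Consortium for Functional Glycomics database, limited to those with an available protein sequence. Binding is reported as a within-array Z-score averaged across arrays of one protein sequence and across linkers.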
# [2] = target: Neu5Ac(a2-8)Neu5Ac(a2-3)Gal(b1-4)Glc
# How it was run: as §1
# [3] = target: Neu5Ac(a2-8)Neu5Ac(a2-3)[GalNAc(b1-4)]Gal(b1-4)Glc
# How it was run: as §1
# [4] = target: Neu5Ac(a2-8)Neu5Ac(a2-8)Neu5Ac
# How it was run: as §1
# [5] = target: Neu5Ac(a2-8)Neu5Ac(a2-8)Neu5Ac(a2-3)Gal(b1-4)Glc
# How it was run: as §1
# [6] = target: Neu5Ac(a2-8)Neu5Ac(a2-8)Neu5Ac(a2-3)[GalNAc(b1-4)]Gal(b1-4)Glc
# How it was run: as §1
# [7] = target: Neu5Ac(a2-8)Neu5Ac(a2-8)Neu5Ac(a2-8)Neu5Ac(a2-3)[GalNAc(b1-4)]Gal(b1-4)Glc
# How it was run: as §1
# [8] = target: Neu5Ac(b2-6)Gal(b1-4)GlcNAc
# How it was run: as §1
# [9] = target: Neu5Ac(b2-6)GalNAc
# How it was run: as §1
# [10] = target: Neu5Ac9Ac(a2-3)Gal(b1-3)GlcNAc
# How it was run: as §1
# [11] = target: Neu5Ac9Ac(a2-3)Gal(b1-4)GlcNAc
# How it was run: as §1
# [12] = target: Neu5Ac9Ac(a2-6)Gal(b1-4)GlcNAc
# How it was run: as §1
# [13] = target: Neu5Gc(a2-3)Gal(b1-3)GlcNAc
# How it was run: as §1
# [14] = target: Neu5Gc(a2-3)Gal(b1-3)[Fuc(a1-4)]GlcNAc
# How it was run: as §1
# [15] = target: Neu5Gc(a2-3)Gal(b1-4)Glc
# How it was run: as §1
# [16] = target: Neu5Gc(a2-3)Gal(b1-4)GlcNAc
# How it was run: as §1
# [17] = target: Neu5Gc(a2-3)Gal(b1-4)[Fuc(a1-3)]GlcNAc
# How it was run: as §1
# [18] = target: Neu5Gc(a2-6)Gal(b1-4)GlcNAc
# How it was run: as §1
# [19] = target: Neu5Gc(a2-6)GalNAc
# How it was run: as §1
# [20] = target: Neu5Gc(b2-6)Gal(b1-4)GlcNAc
# How it was run: as §1
binder,measurement,setting,value
B1,glycan array binding signal (z-score),[1],-0.5
same,glycan array binding signal (z-score),[2],-0.713
same,glycan array binding signal (z-score),[3],0.207
same,glycan array binding signal (z-score),[4],-0.293
same,glycan array binding signal (z-score),[5],-0.598
same,glycan array binding signal (z-score),[6],0.198
same,glycan array binding signal (z-score),[7],-0.721
same,glycan array binding signal (z-score),[8],-0.796
same,glycan array binding signal (z-score),[9],-0.725
same,glycan array binding signal (z-score),[10],-0.261
same,glycan array binding signal (z-score),[11],0.306
same,glycan array binding signal (z-score),[12],-0.087
same,glycan array binding signal (z-score),[13],0.1
same,glycan array binding signal (z-score),[14],-0.354
same,glycan array binding signal (z-score),[15],0.763
same,glycan array binding signal (z-score),[16],0.102
same,glycan array binding signal (z-score),[17],0.754
same,glycan array binding signal (z-score),[18],0.237
same,glycan array binding signal (z-score),[19],0.222
same,glycan array binding signal (z-score),[20],-0.855

# Another view of some results above:
binder | measurement | setting | value
B1 | glycan array binding signal (z-score) | [14] | -0.354
same | glycan array binding signal (z-score) | [15] | 0.763
same | glycan array binding signal (z-score) | [16] | 0.102
same | glycan array binding signal (z-score) | [17] | 0.754
same | glycan array binding signal (z-score) | [18] | 0.237
